Where “and” joins values, the source holds several entries; their conditions need not be identical. Equal entries are not always repeated. Structures can show the parent of a compound that is named as a salt. ± gives the standard deviation of the averaged measurements. The full ranking holds about 1,800 compounds; the median of “GFP- (p16Ink4a-) cell count relative to negative-control wells” is about 0.99, and the lowest 2% start at about 0.5. This is one part of the list.

The test has as its system mouse p16Ink4a+/- lung fibroblasts (INKBRITE, bleomycin-injured). The test is described as follows: GFP- (p16Ink4a-) cell count relative to negative-control wells (fold of vehicle); higher = more p16Ink4a- cells surviving. To be noted: 1 µM; 3 days.
With `C[C@H](Oc1cc(-c2cnn(C3CCNCC3)c2)cnc1N)c1c(Cl)ccc(F)c1Cl` [(S)-crizotinib], the GFP- turned out to be 1.08. Consider `NC(=O)N/N=C/c1ccc([N+](=O)[O-])o1` [Nitrofural], for which the GFP- turned out to be 0.939. `O=C(/C=C/c1ccc(O)c(O)c1)c1ccc(O)cc1O` [Butein] came in with a GFP- of 0.832. Consider `CCNC(=O)Nc1ccc(-c2nc3c(c(N4CCOC[C@@H]4C)n2)CCN(C2COC2)C3)cc1`, for which the GFP- came out at 0.69. The molecule `COc1ccc2c(c1)c(CC(=O)OCC(=O)O)c(C)n2C(=O)c1ccc(Cl)cc1` [Acemetacin] displayed a GFP- of 1.16. On to `CS(=O)c1ccc(-c2nc(-c3ccc(F)cc3)c(-c3ccncc3)[nH]2)cc1` (stereo not given), for which the GFP- is 1.18. In turn, `O=C(c1cncc(Br)c1)N1CCC(N2CCCC2)CC1` returned a GFP- of 0.924 ± 0.13. As for `CN(Cc1cc(Br)cc(Br)c1N)C1CCCCC1` [Bromhexine], the GFP- amounted to 1.04. The molecule `CN(C)CCc1c[nH]c2ccc(C[C@H]3COC(=O)N3)cc12` [Zolmitriptan] gave a GFP- of 0.998.

For the molecule `O=C(O)C(O)Cc1ccc(O)c(O)c1` (stereo not given) [Sodium Danshensu], the GFP- was 1.19. `CCN1CCN(C(=O)N[C@@H](C(=O)N[C@@H]2C(=O)N3C(C(=O)O)=C(CSc4nnnn4C)CS[C@H]23)c2ccc(O)cc2)C(=O)C1=O` [Cefoperazone sodium salt] displayed a GFP- of 1.04. As to `CNc1ncnc2c1ncn2[C@@H]1O[C@H](CO)[C@@H](O)[C@H]1O` [N6-methyladenosine], the GFP- turned out to be 1.04. The result for `O=c1c(-c2ccc(O)cc2)coc2cc(O)cc(O)c12` [Genistein] reads 1.03; that for `CC(C)(O)CC[C@@H](O)[C@](C)(O)[C@H]1CC[C@@]2(O)C3=CC(=O)[C@@H]4C[C@@H](O)[C@@H](O)C[C@]4(C)[C@H]3CC[C@]12C` [20-Hydroxyecdysone], 1.08; that for `O=C(Nc1ccc(OC(F)(F)F)cc1)c1sccc1NCc1ccnc2ccccc12`, 0.964. Molecule `Cc1nn(-c2ccccc2)c(C)c1/C=N/N1CCN(Cc2ccccc2)CC1` returned a GFP- of 1.01. The molecule `CCOc1nc2cccc(C(=O)OCc3oc(=O)oc3C)c2n1Cc1ccc(-c2ccccc2-c2noc(O)n2)cc1` [Azilsartan medoxomil] came in with a GFP- of 1.11. The result for `CC(C)Cc1ccc(C(C)C(=O)O)cc1` (racemic) reads 0.966. The result for `Cc1cn(-c2cc(NC(=O)c3ccc(C)c(Nc4nccc(-c5cccnc5)n4)c3)cc(C(F)(F)F)c2)cn1` [Nilotinib] reads 1.14; that for `C=CC(=O)Nc1cccc(Oc2nc(Nc3ccc(N4CCN(C)CC4)cc3)ncc2Cl)c1`, 0.844. The result for `OC(CN1CCN(c2cccc(Cl)c2)CC1)C(c1ccccc1)c1ccccc1` (stereo not given) reads 1.09. For `OC[C@@H](O)[C@@H](O)[C@H](O)[C@@H](O)CO` [Sorbitol], the GFP- worked out at 1.06.

The molecule `CC1=C(C(=O)O)N2C(=O)[C@@H](NC(=O)[C@H](N)c3ccccc3)[C@H]2SC1` [Cephalexin] gave a GFP- of 0.858.

Consider `CCc1cncnc1N1CCN(Cc2nc3cc(C(F)(F)F)ccc3[nH]2)CC1`, for which the GFP- worked out at 0.963. The molecule `Nc1ccc(-c2ccc3ncc4ccc(=O)n(-c5cccc(C(F)(F)F)c5)c4c3c2)cn1` [Torin 2] gave a GFP- of 0.456. The result for `Cc1cccc(Nc2cc(Cl)nc(SCC(=O)O)n2)c1C` [Pirinixic Acid] reads 1.03. As for `COC1=C2C[C@@H](C)C[C@H](OC)[C@H](O)[C@@H](C)/C=C(\C)[C@H](OC(N)=O)[C@@H](OC)/C=C/C=C(\C)C(=O)/N=C(/C=C1O)C2=O` [Geldanamycin], the GFP- amounted to 0.879.

Molecule `COc1cc2c(cc1OC)-c1cc3ccc(OC)c(OC)c3c[n+]1CC2` [Palmatine] yielded a GFP- of 0.986. `NC(=O)N1CCC(CC(=O)N2CCC([C@H]3c4ncc(Br)cc4CCc4cc(Cl)cc(Br)c43)CC2)CC1` [Lonafarnib] registered a GFP- of 0.808.

In turn, `CC(C[N+](C)(C)C)OC(N)=O` (stereo not given) [Bethanechol] came in with a GFP- of 0.993.

The molecule `O=C1C(O)=C(O)O[C@@H]1[C@@H](O)CO` [Vitamin C] registered a GFP- of 1.11. `CC1(C)CNc2cc(NC(=O)c3cccnc3NCc3ccncc3)ccc21` [Motesanib Diphosphate]: the GFP- was 1.02.

As for `OC[C@H]1O[C@@H](OCCc2ccc(O)cc2)[C@H](O)[C@@H](O)[C@@H]1O` [Salidroside], the GFP- worked out at 1.15.

Turning to `O=S(=O)(O)Oc1ccc(C(c2ccc(OS(=O)(=O)O)cc2)c2ccccn2)cc1` [Picosulfuric acid], the GFP- came to 0.991. As to `CC[C@H]1OC(=O)[C@H](C)[C@@H](O[C@H]2C[C@@](C)(OC)[C@@H](O)[C@H](C)O2)[C@H](C)[C@@H](O[C@H]2O[C@H](C)C[C@H](N(C)C)[C@H]2O)[C@](C)(O)C[C@@H](C)CN(C)[C@H](C)[C@@H](O)[C@]1(C)O` [Azithromycin], the GFP- is 0.865. `CC1(C)O[C@@H]2C[C@H]3[C@@H]4CCC5=CC(=O)C=C[C@]5(C)[C@@]4(F)[C@@H](O)C[C@]3(C)[C@]2(C(=O)CO)O1` [Triamcinolone Acetonide] returned a GFP- of 0.946. Molecule `COc1cc2nccc(Oc3ccc(NC(=O)Nc4ccc(F)cc4F)c(F)c3)c2cc1OC` gave a GFP- of 0.466. `[NH2][Pt]([NH2])([Cl])[Cl]` [Cisplatin] had a GFP- of 1.05. For `CC(=O)N[C@H]1[C@H]([C@H](O)[C@H](O)CO)OC(C(=O)O)=C[C@@H]1NC(=N)N` [Zanamivir], the GFP- is 0.924. `Cc1ccc(CNc2ncnc3ccc(-c4ccc(CO)o4)cc23)o1`: the GFP- came to 0.793. As for `C[C@@H](NCCCc1cccc(C(F)(F)F)c1)c1cccc2ccccc12` [Cinacalcet], the GFP- was determined as 1.22.

In the case of `CN1CCN(C2CCN(C(=O)Nc3cc(Oc4ccc(NC(=O)C5(C(=O)Nc6ccc(F)cc6)CC5)c(F)c4)ccn3)CC2)CC1` [Golvatinib], the GFP- was 0.852. For the molecule `C[C@@H]1O[C@@H](OC[C@H]2O[C@@H](Oc3c(-c4ccc(OCCO)c(OCCO)c4)oc4cc(OCCO)cc(O)c4c3=O)[C@H](O)[C@@H](O)[C@@H]2O)[C@H](O)[C@H](O)[C@H]1O` [Troxerutin], the GFP- stood at 1.02. The result for `COc1cc(C=O)ccc1O` [Vanillin] reads 1.05; that for `CN/C(=C/[N+](=O)[O-])NCCSCc1csc(CN(C)C)n1` [Nizatidine], 1.02; that for `Nc1nc(F)nc2c1ncn2[C@@H]1O[C@H](COP(=O)(O)O)[C@@H](O)[C@@H]1O` [Fludarabine Phosphate], 1.1.

`CCN1CCCC1CNC(=O)c1cc(S(=O)(=O)CC)c(N)cc1OC` (stereo not given) [Amisulpride] registered a GFP- of 1.03. Consider `O=C(NNc1ccccc1)c1ccncc1` [PluriSIn #1], for which the GFP- came out at 0.849. As to `O=c1[nH]c(=O)n([C@H]2C[C@H](O)[C@@H](CO)O2)cc1F` [Floxuridine], the GFP- was 1.01. In the case of `O=C(NCc1ccccc1)c1csc(Nc2ccncn2)n1` [Thiazovivin], the GFP- is 1.04. `COc1cc2ncnc(Nc3ccc(Cl)cc3F)c2cc1OC` showed a GFP- of 0.886. Consider `CN1CCC[C@@H]1Cc1c[nH]c2ccc(CCS(=O)(=O)c3ccccc3)cc12` [Eletriptan], for which the GFP- stood at 1.03.

On to `CC1(C)S[C@H]2[C@@H](NC(=O)[C@@H](NC(=O)N3CCN(S(C)(=O)=O)C3=O)c3ccccc3)C(=O)N2[C@@H]1C(=O)O` [Mezlocillin Sodium], for which the GFP- turned out to be 0.913. For the molecule `CNC[C@H](O)c1cccc(O)c1` [Phenylephrine], the GFP- was determined as 0.944.

As for `COc1ccc2cc(CCC(C)=O)ccc2c1` [Nabumetone], the GFP- turned out to be 1.12. Take `COCCO/C(O)=C1\C(C)=NC(C)=C(C(=O)OC(C)C)C1c1cccc([N+](=O)[O-])c1` (stereo not given) [Nimodipine]: the GFP- stood at 1.06. With `O=C1c2cccc(O)c2C(=O)c2c(O)cc(CO)cc21` [Aloe-emodin], the GFP- worked out at 1.13. `OC(CCN1CCCCC1)(c1ccccc1)C1CC2C=CC1C2` (stereo not given) [Biperiden] gave a GFP- of 1.22. The result for `CC(C)C[C@H](NC(=O)CNC(=O)c1cc(Cl)ccc1Cl)B(O)O` [Ixazomib] reads 0.394.

Take `CC(=O)c1cc([N+](=O)[O-])c(Sc2ccc(F)cc2F)s1`: the GFP- came out at 0.741. `CCOC(=O)CCNc1cc(N2CCc3ccccc3CC2)nc(-c2ccccn2)n1` displayed a GFP- of 0.875 ± 0.048.

Turning to `CNCC[C@H](Oc1cccc2ccccc12)c1cccs1` [Duloxetine], the GFP- was found to be 1.15. Molecule `O=C(NC1CCOCC1)c1ccc(-c2cc(-c3c[nH]nc3-c3ccccn3)ccn2)cc1` displayed a GFP- of 1.27. Regarding `COc1ccccc1OCC(O)CN1CCN(CC(=O)Nc2c(C)cccc2C)CC1` (stereo not given) [Ranolazine, Ranolazine Dihydrochloride], the GFP- is 1.07 and 0.977.

`NC(=O)Nc1sc(-c2ccc(F)cc2)cc1C(N)=O` gave a GFP- of 0.788. On to `O=c1[nH]c(=O)n([C@H]2C[C@H](O)[C@@H](CO)O2)cc1I` [Idoxuridine], for which the GFP- came to 0.952. `CC[C@H]1OC(=O)[C@H](C)[C@@H](O[C@H]2C[C@@](C)(OC)[C@@H](O)[C@H](C)O2)[C@H](C)[C@@H](O[C@@H]2O[C@H](C)C[C@H](N(C)C)[C@H]2O)[C@](C)(O)C[C@@H](C)/C(=N/OCOCCOC)[C@H](C)[C@@H](O)[C@]1(C)O` [Roxithromycin]: the GFP- was 0.988. The molecule `CN1C[C@@H]2c3ccccc3Oc3ccc(Cl)cc3[C@H]2C1` [Asenapine] returned a GFP- of 0.985. `O=C1C(O)=C([C@H]2CC[C@H](c3ccc(Cl)cc3)CC2)C(=O)c2ccccc21` [Atovaquone] came in with a GFP- of 0.997.

In the case of `OC[C@@H](O)[C@@H](O)CO` [_x000D_  Meso-Erythritol], the GFP- amounted to 0.974.

For the molecule `O=C(/C=C/c1ccc(O)c(O)c1)O[C@@H]1C[C@](O)(C(=O)O)C[C@@H](O)[C@H]1O` [Chlorogenic Acid], the GFP- is 1.01. The result for `Cc1cc(NC(=O)Nc2ccc(N(C)C)cc2)c2cc(F)cc(F)c2n1` reads 1.15; that for `CCOC(=O)c1ccc(N2NC(=O)/C(=C/c3ccc([N+](=O)[O-])o3)C2=O)cc1`, 0.95.

`CCC(=O)O[C@]1(C(=O)SCF)[C@H](C)C[C@H]2[C@@H]3C[C@H](F)C4=CC(=O)C=C[C@]4(C)[C@@]3(F)[C@@H](O)C[C@@]21C` [Fluticasone propionate] showed a GFP- of 0.911.

With `CN1CCC(NC(=O)c2cc(-c3c(O)cc(O)cc3Oc3ccc([N+](=O)[O-])cc3)on2)CC1`, the GFP- is 1.03.

The values above are taken from the supplement of paper PMC11060735.
